From US7229777B2, “Hairpin peptides with a novel structural motif and methods relating thereto” (Genentech, Inc., priority 2001, dated 2007)
Some entries share one result that the patent states for a list of compounds.

Experiment: CD-monitored thermal denaturation (two-state unfolding fit)
Type: physicochemical
Procedure: Spectra were acquired with an Aviv Instruments, Inc. Model 202 spectrophotometer. Peptide concentrations were determined spectrophotometrically as described in Gill & von Hippel (1989) Anal. Biochem. 182:319–326. Melting curves were acquired at 229 nm with […] equilibration at each temperature and an averaging time of 15 s. Thermal denaturation was reversible, as judged by recovery of CD signal (≧95%) upon cooling. In addition, reverse melting curves were acquired for trpzips 1 and 4. Reverse and forward curves were identical in shape, with≦0.5 K shift in Tm. As a model for the unfolded state of the peptides, the melting curve (linear) of an equimolar mixture of the trpzip1 half peptides SWTWEG[SEQ ID NO: 14] and NKWTWK [SEQ ID NO: 15] was measured. Data for the trpzip peptides were then fit to a two-state unfolding equilibrium as described in Minor & Kim (1994) Nature 367:660–663, fixing the unfolded baseline. Folded baselines, Tm, ΔHm (ΔH at Tm), and ΔCp were allowed to vary. For trpzips 5 and 6, the unfolded baseline could be fit directly to the experimental data. ΔSm was calculated from the fit parameters (ΔHm/Tm). Errors in Table 2 were generated by the fitting algorithm (Kaleidagraph, Synergy Software) and were given to indicate the quality of the fits to the particular experimental data set. […]

For SWTWEGNKWTWK [trpzip1], the “Shift in Tm between reverse and forward melting curves” value was ≤ 0.5 K.
